Test results taken from PubChem BioAssay AID504444 (National Center for Advancing Translational Sciences (NCATS), 2011).
Among all 360,000 compounds or so, about 7,500 (2.1%) were called active. Inconclusive means that the source gave no clear call. Such entries were picked first, then a sample of the others. Calls come from the whole dose curve; as a rule, active = well fitted inhibition curve with a large enough effect; inconclusive = small, poorly fitted or top-dose-only effect, or effect the other way; inactive = flat fitted curve, though single readings scatter. Potencies of inconclusive entries are doubtful fits and often do not repeat.

Assay: Nrf2 qHTS screen for inhibitors; note: nearly all actives have a fitted effect of over 60% in size
Details: A549 ARE-Fluc reporter, luciferase luminescence, 18-24 h; activity change, negative = inhibition: at 46 µM (top of the series)
Procedure, shortened: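 Concentration-response testing used A549 ARE_Fluc cells at 5000 cells/well. Following an 18-24 h compound incubation, viability was read by fluorescence (Ex 405/Em 525) and luciferase output by luminescence.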
% is set by controls: 0 for no effect and ±100 for the full control effect; potency is the fitted concentration of half-maximal effect.

| SMILES | Potency | activity change, negative = inhibition |
| --- | --- | --- |
| CC(=O)Nc1ccc(-c2csc(NCc3ccco3)n2)cc1 | inconclusive: 1.46 µM [activator, full curve, poor fit] |  |
| CCOc1ccc(CN2C(=O)c3ccccc3Sc3ccc(C(=O)NCc4ccc5c(c4)OCO5)cc32)cc1 | inconclusive: 0.184 µM [falling, full curve, poor fit] |  |
| O=C(Nc1ccccn1)c1ccc(Br)s1 | inconclusive: 3.26 µM [activator, full curve] |  |
| COc1ccc(NS(=O)(=O)c2cccc(C(=O)OCC(=O)c3c(N)n(C)c(=O)n(C)c3=O)c2)cc1 | inconclusive: 29.1 µM [falling, single point] |  |
| CC(C)(C)n1ncc2c(=O)n(CC(=O)OCc3ccccc3)cnc21 | inconclusive: 20.6 µM [activator, partial curve] |  |
| CCN=C1S/C(=C\c2ccc(O)c(OCC)c2)C(=O)N1CC |  | inactive: 12.7% |
| Cc1cccc(C(=O)N2CCNC(=O)C2CC(=O)Nc2ccc(F)cc2)c1 (stereo unspecified) |  | inactive: 4.89% |
| CC(C)C(=O)Nc1cccc(C(=O)Nc2cc([N+](=O)[O-])ccc2Cl)c1 | inconclusive: 8.2 µM [falling, partial curve] |  |
| COc1ccc(C2C(C(=O)Nc3ccccc3)=C(C)Nc3nc(-c4ccccc4)nn32)c(OC)c1 (stereo unspecified) | inconclusive: 16.4 µM [falling, partial curve, poor fit] |  |
| CC(C(=O)O)N1C(=O)CSc2ncccc21 (stereo unspecified) | inconclusive: 16.4 µM [activator, partial curve, poor fit] |  |
| CC(=O)NCCC1CCCCN1C(=O)c1cc(COc2cc(C)ccc2C)on1 (stereo unspecified) | inconclusive: 2.59 µM [activator, full curve] |  |
| O=C(COCc1cc(-c2ccc3c(c2)OCO3)on1)Nc1cccnc1 |  | inactive: -15.1% |
| COc1ccc(C(=S)N2CCCCCC2)cc1 | inconclusive: 25.9 µM [activator, partial curve, poor fit] |  |
| COc1ccc(OC2CCN(S(=O)(=O)c3cccc(F)c3)CC2)cc1 | inconclusive: 23.1 µM [falling, partial curve, poor fit] |  |
| COc1ccc(C=Nc2cccnc2N)cc1 | inconclusive: 9.2 µM [activator, partial curve] |  |
| O=S(=O)(c1ccc(F)cc1)N1CCN(c2nc(-c3cccs3)nc3cc(Cl)ccc23)CC1 |  | inactive: 0.637% |
| CN(C[C@H](Cc1ccccc1)N(C[C@@H](Cc1cccc2ccccc12)N(CCc1ccccc1)N=O)N=O)N=O | inconclusive: 16.4 µM [activator, partial curve, poor fit] |  |
| CCCCC(=O)N1CC(=O)Nc2ccc(F)cc2C1c1ccc(F)cc1 (stereo unspecified) | inactive |  |
| CCN(CC)C(=O)c1sc(NC(=O)c2ccoc2C)c(C(=O)OC)c1C |  | inactive: -20.9% |
| Cc1ccc(S(=O)Cc2ccc(C(=O)NCc3ccc(OC(C)C)cc3)o2)cc1 (stereo unspecified) | inconclusive: 29.1 µM [falling, single point] |  |
| CCn1nc(C)c(NC(=O)CCCSc2nc(-c3ccco3)cc(C(F)(F)F)n2)c1C | inconclusive: 16.4 µM [falling, partial curve] |  |
| Clc1cccc(-c2ccc(/C=N/n3cnnc3)o2)c1 | inconclusive: 0.92 µM [falling, full curve, poor fit] |  |

| SMILES | Potency | activity change, negative = inhibition |
| --- | --- | --- |
| O=C(c1ccc(Cn2cc(Cl)c([N+](=O)[O-])n2)cc1)N1CCN(Cc2ccccc2)CC1 | active: 20.6 µM |  |
| O=C1CC(SCc2nc3ccccc3[nH]2)C(=O)N1c1ccc(F)cc1 (stereo unspecified) | inconclusive: 32.6 µM [falling, single point] |  |
| Cc1ccc2c(Sc3ccccc3)c(C(=O)NCc3ccccc3F)[nH]c2c1 |  | inactive: 0.398% |
| COc1ccc2nc(NC(=O)CSc3nc(C)cc(C)n3)sc2c1 | inconclusive: 8.2 µM [falling, partial curve] |  |
| C=CC[C@@H](CC(=O)N(CCO)Cc1ccccc1)C(=O)N[C@@H](COC(=O)[C@@H](CC=C)Cc1ccc(F)cc1)Cc1ccccc1 | active: 23.1 µM |  |
| O=C1CCCN1CCCNC(=S)Nc1ccc(Nc2ccccc2)cc1 | inconclusive: 25.9 µM [falling, single point] |  |
| O=C(CCSc1nnc(-c2ccncc2)o1)Nc1cccc2ccccc12 | inconclusive: 20.6 µM [falling, partial curve, poor fit] |  |
| CCCOc1cccc(C(=O)Nc2cc(-c3nc4ccccc4[nH]3)ccc2C)c1 | inconclusive: 29.1 µM [falling, single point] |  |
| c1ccc(Cn2cnc3ccccc32)cc1 | inconclusive: 10.3 µM [activator, partial curve, poor fit] |  |
| CCC(C)C(=O)Nc1nnc(SCC(=O)NC2CCCC2)s1 (stereo unspecified) | inconclusive: 18.4 µM [falling, partial curve, poor fit] |  |
| O=C(NC(=S)Nc1ccc(CN2CCCCC2)cc1)c1cccc(OCc2ccccc2)c1 | inconclusive: 18.4 µM [activator, single point] |  |
| COc1cccc(CN(C)C(=O)CNC(=O)c2sc3ccccc3c2Cl)c1OC | active: 25.9 µM |  |
| CN(C(=O)c1ccc(NC(=O)c2ccco2)cc1)c1ccccc1 |  | inactive: 1.04% |
| CCOc1ccc(OCc2ccc(C(=O)NC(C)C)o2)cc1 | inconclusive: 29.1 µM [falling, single point] |  |
| Cc1ccc2[nH]c3c(N4CCOCC4)ncnc3c2c1 | inconclusive: 13 µM [falling, partial curve] |  |
| Cc1ccc(Cl)cc1N1CCN(C(=O)c2cc3c(=O)n(C)c4ccccc4c3n2C)CC1 | active: 4.11 µM |  |
| CCN(CC)S(=O)(=O)c1ccc2nc(NC(=O)c3cccs3)sc2c1 | inconclusive: 9.2 µM [activator, partial curve, poor fit] |  |
| OCCCn1c(CCCNc2nc(-c3cccc(Br)c3)cs2)nc2cc(Cl)c(N3CCCCC3)cc21 | inconclusive: 29.1 µM [falling, single point] |  |
| Cc1ccc(/C(=N\O)c2oc3c(C)c4oc(=O)cc(C)c4cc3c2C)cc1 | active: 23.1 µM |  |
| CCc1cccc(NC(=O)CCCN2C(=O)C(c3ccccc3)Oc3cccnc32)c1 (stereo unspecified) | inconclusive: 23.1 µM [falling, single point] |  |
| COc1cc(C#CC#CCN2CCCCC2)ccc1O |  | inactive: 9.18% |
| CC(C)c1ccc(NC(=S)N2CCN(S(=O)(=O)c3ccccc3)CC2)cc1 | inconclusive: 16.4 µM [falling, partial curve, poor fit] |  |

3 structures already listed, arranged by length of the SMILES, rising.

| SMILES | Potency | activity change, negative = inhibition |
| --- | --- | --- |
| CC(C)c1ccc(NC(=S)N2CCN(S(=O)(=O)c3ccccc3)CC2)cc1 | inconclusive: 16.4 µM [falling, partial curve, poor fit] |  |
| COc1ccc(NS(=O)(=O)c2cccc(C(=O)OCC(=O)c3c(N)n(C)c(=O)n(C)c3=O)c2)cc1 | inconclusive: 29.1 µM [falling, single point] |  |
| C=CC[C@@H](CC(=O)N(CCO)Cc1ccccc1)C(=O)N[C@@H](COC(=O)[C@@H](CC=C)Cc1ccc(F)cc1)Cc1ccccc1 | active: 23.1 µM |  |

Further results follow.

| SMILES | Potency | activity change, negative = inhibition |
| --- | --- | --- |
| CC(=O)c1ccc(OCc2cc(C(=O)N3CCC(Oc4ccccc4C)CC3)no2)cc1 | inconclusive: 2.06 µM [activator, partial curve, poor fit] |  |
| CC(C)(C)c1ccc(/C=N/NC(=S)NC2CCCCC2)cc1 |  | inactive: -18.9% |
| COc1ccc(S(=O)(=O)N2CCCCC2)cc1N(C)S(=O)(=O)c1ccccc1 |  | inactive: -6.13% |
| Cc1ccc(S(=O)(=O)CCc2nnc(NC(=O)c3cnccn3)s2)cc1 | inconclusive: 14.6 µM [activator, partial curve, poor fit] |  |
| COc1ccc(CN2CCCN(CC(=O)Nc3cc(C)ccc3C)S2(=O)=O)cc1 | inconclusive: 18.4 µM [falling, single point] |  |
| FC(F)(F)c1nnc2c(Sc3ccc(Cl)cc3)nc3ccccc3n12 | inconclusive: 3.66 µM [activator, full curve] |  |
| CCOc1ccc2nc(NC(=O)C3CCCN(S(=O)(=O)c4cccc5nonc45)C3)sc2c1 (stereo unspecified) | inconclusive: 29.1 µM [falling, single point] |  |
| C=CCN(CC=C)C(=O)C1CCN(S(=O)(=O)c2ccc(-n3cnnn3)cc2)CC1 | inconclusive: 13 µM [falling, single point] |  |
| CC(=O)c1c(C)[nH]c(C(=O)CSc2nnc(C3CCCCC3)n2N)c1C | active: 20.6 µM |  |
| CCN(CC)S(=O)(=O)c1nnc(NC(=O)COc2ccc(C)cc2)s1 | inconclusive: 29.1 µM [activator, single point] |  |
| CCN(CC)CCC(=O)N1c2ccccc2CCc2ccc(NC(=O)OC)cc21 | inconclusive: 1.64 µM [falling, partial curve, poor fit] |  |
| O=C(Nc1nc(-c2cc(F)ccc2F)cs1)C1=COCCO1 | inconclusive: 6.51 µM [activator, single point] |  |
| Cc1sc2nc(CN3CCOCC3)[nH]c(=S)c2c1C |  | inactive: -20.6% |
| Cc1ccc(C)c(NC(=O)CSc2nnc(CNC(=O)c3ccccc3)n2-c2ccccc2)c1 |  | inactive: 3.74% |
| CCOc1ccc(NC(=O)c2ccc(CN3C(=O)C(C)=C(c4ccc(C)cc4)S3(=O)=O)cc2)cc1 | inconclusive: 9.2 µM [falling, partial curve, poor fit] |  |
| CCN(c1ccccc1)S(=O)(=O)c1ccc(Cl)c(NC(=O)CN(C)Cc2cccc(F)c2)c1 | inconclusive: 29.1 µM [falling, single point] |  |
| CNC(=S)N(C)[C@H]1c2c(ccc3ccccc23)OC[C@H]1CO |  | inactive: 16.1% |
| COc1ccc(CN(C)C(=O)CCN(c2ccccc2)S(=O)(=O)c2ccc(C)cc2)c(OC)c1 | inconclusive: 16.4 µM [falling, single point] |  |
| CC(=O)Nc1ccc(NC(=O)c2cc(=O)c3cc(C)cc(C)c3o2)cc1 | inconclusive: 3.26 µM [falling, partial curve, poor fit] |  |
| COc1cccc(NC(=O)c2nnn(CCc3ccccc3)c2N)c1 | inconclusive: 10.3 µM [activator, partial curve] |  |
| CCCCNC(=O)c1cn(CC)c2ccc(S(=O)(=O)N3CCCC3)cc2c1=O | inconclusive: 23.1 µM [falling, partial curve, poor fit] |  |
| COc1ccc(C(C(=O)NCC2CCCO2)N(C(=O)c2snc(C(N)=O)c2N)c2ccc(C)cc2)cc1OC (stereo unspecified) | inconclusive: 29.1 µM [activator, single point] |  |
